{"source": "patent US10765729B2", "about": "“Tumor antigen peptide” (Sapporo Medical University, priority 2014, dated 2020)", "system": "HLA-A24", "assay": "Peptide binding assay with T2-A24 cells, flow cytometry", "design": "species or system human", "settings": "peptide pulsed at 0.3, 1, 3.3 and 10 μM; FIG. 8", "note": "Part of at least one peptide drawing is inferred or uncertain, most often the ends. Where no end group is shown, it is not given here.", "data": [{"sequence": "IYPPQFHKV [SEQ ID No. 3]", "values": [{"measurement": "binding activity to HLA-A24", "value": "has binding activity to HLA-A24"}]}]}
